Assay results published in publication PMC9600345.
These are yes or no findings as the source states them, for the method shown. In cells and extracts the contact can be indirect. Here binding means that the protein was enriched with, or labelled near, the bait; the list need not be complete. A no says only that the protein was not detected with the bait.

Protein sequences, listed by entry. Tags and fused reporters are not part of them.
UniProt P20581: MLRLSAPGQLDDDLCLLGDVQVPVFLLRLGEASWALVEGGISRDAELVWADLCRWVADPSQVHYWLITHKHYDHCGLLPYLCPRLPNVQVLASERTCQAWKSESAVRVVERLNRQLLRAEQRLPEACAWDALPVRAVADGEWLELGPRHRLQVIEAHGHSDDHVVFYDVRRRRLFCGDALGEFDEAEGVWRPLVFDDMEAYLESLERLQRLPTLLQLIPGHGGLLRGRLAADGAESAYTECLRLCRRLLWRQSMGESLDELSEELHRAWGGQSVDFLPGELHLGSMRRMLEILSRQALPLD
UniProt P54292: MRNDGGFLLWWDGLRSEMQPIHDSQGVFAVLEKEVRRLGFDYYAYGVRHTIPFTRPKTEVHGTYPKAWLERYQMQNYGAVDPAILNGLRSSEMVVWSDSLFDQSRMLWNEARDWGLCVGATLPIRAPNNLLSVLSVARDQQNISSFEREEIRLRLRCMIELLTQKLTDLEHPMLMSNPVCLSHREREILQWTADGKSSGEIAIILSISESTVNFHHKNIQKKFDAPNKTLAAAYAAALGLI
UniProt P54291: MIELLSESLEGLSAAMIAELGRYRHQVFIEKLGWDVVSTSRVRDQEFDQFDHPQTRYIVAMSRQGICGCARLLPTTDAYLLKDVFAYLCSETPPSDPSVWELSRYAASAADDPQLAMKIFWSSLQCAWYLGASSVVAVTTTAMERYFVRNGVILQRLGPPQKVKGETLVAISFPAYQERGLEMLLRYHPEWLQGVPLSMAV
UniProt O54439: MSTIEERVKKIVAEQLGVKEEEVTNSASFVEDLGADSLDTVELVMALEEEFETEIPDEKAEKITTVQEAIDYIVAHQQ
UniProt Q59638: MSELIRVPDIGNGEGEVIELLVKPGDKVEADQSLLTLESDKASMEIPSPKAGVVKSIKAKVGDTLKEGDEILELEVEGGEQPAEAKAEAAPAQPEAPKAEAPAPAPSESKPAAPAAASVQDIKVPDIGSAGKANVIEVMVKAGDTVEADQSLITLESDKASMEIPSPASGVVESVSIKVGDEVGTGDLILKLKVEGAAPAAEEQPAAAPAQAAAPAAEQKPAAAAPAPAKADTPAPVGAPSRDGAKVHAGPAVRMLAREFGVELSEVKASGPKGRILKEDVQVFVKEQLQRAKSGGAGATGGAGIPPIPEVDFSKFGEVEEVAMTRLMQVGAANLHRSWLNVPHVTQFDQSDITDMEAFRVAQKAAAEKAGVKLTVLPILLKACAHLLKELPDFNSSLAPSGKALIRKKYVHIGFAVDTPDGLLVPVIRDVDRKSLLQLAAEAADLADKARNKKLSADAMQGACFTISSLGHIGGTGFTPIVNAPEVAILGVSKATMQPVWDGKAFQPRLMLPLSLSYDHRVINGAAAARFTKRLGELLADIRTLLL
UniProt A0A0H2ZFD5: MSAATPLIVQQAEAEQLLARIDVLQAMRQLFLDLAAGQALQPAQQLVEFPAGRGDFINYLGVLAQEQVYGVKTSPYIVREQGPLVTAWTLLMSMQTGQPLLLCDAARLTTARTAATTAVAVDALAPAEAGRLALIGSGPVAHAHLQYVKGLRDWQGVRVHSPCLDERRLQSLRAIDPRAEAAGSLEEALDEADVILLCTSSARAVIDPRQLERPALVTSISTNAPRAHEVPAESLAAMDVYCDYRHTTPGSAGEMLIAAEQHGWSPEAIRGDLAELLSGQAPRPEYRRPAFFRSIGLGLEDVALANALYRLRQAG

What was measured:
[1] = target: eGFP-PqsE(WT) (Pseudomonas aeruginosa) (UniProt P20581); test: affinity purification with mass spectrometry; as a1 but eGFP-PqsE bait expressed from pUCP18 in ΔrhlR P. aeruginosa PA14 (no RhlR); GFP-Trap magnetic beads 1 h at 4°C; hits at least 2-fold enriched over eGFP alone in the same strain
[2] = target: eGFP-PqsE(WT) (Pseudomonas aeruginosa) (UniProt P20581); test: affinity purification with mass spectrometry; eGFP-PqsE bait expressed from pUCP18 in WT P. aeruginosa PA14; cryogenic grinding, no cross-linking; cleared lysate (500 ug, 1 mg/mL) on GFP-Trap magnetic beads 1 h at 4°C; 20 mM HEPES pH 7.4, 100 mM potassium acetate, 200 mM NaCl, 2 mM MgCl2, 1% Triton X-100, 0.1% Tween 20; label-free LC-MS/MS, biological triplicate; hits at least 2-fold enriched over eGFP alone
[3] = target: eGFP-PqsE(WT) (Pseudomonas aeruginosa) (UniProt P20581); test: affinity purification with mass spectrometry; as a1 but eGFP-PqsE bait expressed from pUCP18 in ΔrhlR P. aeruginosa PA14 (no RhlR); GFP-Trap magnetic beads 1 h at 4°C; hits at least 2-fold enriched over eGFP alone in the same strain; remark: listed apart in the source

## GpsA (from UniProt Q02K99) (enzyme)
[1]
  binding: no binding (only in the ΔrhlR strain)
[2]
  binding: binds

## RhlR (from UniProt P54292 1-241) (receptor)
[2]
  binding: binds

## RhlI (from UniProt P54291 1-201) (enzyme)
[1]
  binding: binds
[2]
  binding: no binding (only in WT PA14, where RhlR is present)

## AcpP (from UniProt O54439 1-78)
[1]
  binding: no binding (only in the ΔrhlR strain)
[2]
  binding: binds

## AceF (from UniProt Q59638 1-547)
[1]
  binding: binds

## PA14_14020 (from UniProt A0A0H2ZFD5 1-315) (enzyme)
[1]
  binding: no binding (only in the ΔrhlR strain)
[2]
  binding: binds

## ApeB (from UniProt Q02Q78) (enzyme)
[1]
  binding: no binding (only in the ΔrhlR strain)
[2]
  binding: binds

B1: GlyS (protein, UniProt Q02V73 1-684)
chain: MSAKDFLVELGTEELPPKALNSLGEAFLSGIEKGLKAAGLSYAAARFYAAPRRLAVLVEQLAVQQPDRTVNLDGPPLQAAFDASGNPTQAALGFAKKCGVDLQQIDKSGPKLRFSQTIAGQPAAGLLPGIVEASLNELPIPKRMRWAARREEFVRPTQWLVMLFGDDVVECEILAQKAGRESRGHRFHNPDNVRISSPAAYLEDLRGAHVLADFAERRELIAKRVAELAAEQQGSAIVPPSLLDEVTALVEWPVPLVCSFEERFLEVPQEALITTMQDNQKYFCLLDANGKLLPRFITVANVESKAPENIVSGNEKVVRPRLTDAEFFFKQDKKQPLESFNERLRNVVFQAQLGTVFEKAQRVSGLAAYIAERIGGNAQNAARAGILSKCDLATEMVGEFPEMQGIAGYYYATHGGEAEDVALALNEQYMPRGAGAELPSTLTGAAVAVADKLDTLVGIFGIGMLPTGSKDPYALRRAALGVLRILIEKQLDLDLVAAVNAAVEQYGDKVKAAGLAEQVLDFVFDRLRARYEDEGVDVAVYQSVRALKPSSPLDFDQRVQAVQAFRQLPEAEALAAANKRVSNILAKSEDEVPPNVDASLLVEAAEKALGSAVANAESEVAPLAAARDYRAALARLAALREPVDTFFADVMVNVDDAAVRANRYALLAKLRGSFLGVADISLLG
[3]
  binding: binds

B2: GcvH1 (protein, UniProt Q9I136 1-127)
chain: MSKLRFTTDHEWLRQDDDGLLTVGITAYAQDALGDVVFVQLPELGEHAAGSEVAVLESVKAASNILMPLDGEVVAINDALPDAPELVNQDPLGEAWFFRFRPADAGAWEKLLDQAAYDRLLNANADA
[3]
  binding: no binding (only in the ΔrhlR strain)
[2]
  binding: binds

B3: GapA (protein, UniProt P27726 1-334)
chain: MTIRLAINGFGRIGRNVLRALYTGHYREQLQVVAINDLGDAAVNAHLFQYDSVHGHFPGEVEHDAESLRVMGDRIAVSAIRNPAELPWKSLGVDIVLECTGLFTSRDKAAAHLQAGAGKVLISAPGKDVEATVVYGVNHEVLRASHRIVSNASCTTNCLAPVAQVLHRELGIEHGLMTTIHAYTNDQNLSDVYHPDLYRARSATQSMIPTKTGAAEAVGLVLPELAGKLTGLAVRVPVINVSLVDLTVQVARDTSVDEVNRLLREASEGSPVLGYNTQPLVSVDFNHDPRSSIFDANHTKVSGRLVKAMAWYDNEWGFSNRMLDSALALAAARD
[3]
  binding: binds

B4: ThrB (enzyme, UniProt Q02DL4 1-316)
chain: MSVFTPLERSTLEAFLAPYDLGRLRDFRGIAEGSENSNFFVSLEHGEFVLTLVERGPVQDLPFFIELLDVLHEDGLPVPYALRTRDGEALRRLEGKPALLQPRLAGRHERQPNAHHCQEVGDLLGHLHAATRGRILERPSDRGLPWMLEQGANLAPRLPEQARALLAPALAEIAALDAERPALPRANLHADLFRDNVLFDGPHLAGLIDFYNACSGWMLYDLAITLNDWCSNADGSLDPARARALLAAYANRRPFTALEAEHWPSMLRVACVRFWLSRLIAAEAFAGQDVLIHDPAEFEMRLAQRQNVEIHLPFAL
[3]
  binding: no binding (only in the ΔrhlR strain)
[2]
  binding: binds

B5: MaiA (protein, UniProt P57109 1-212)
chain: MKLYTYYRSTSSYRVRIALALKGLDYQSLPVNLIRDGGEHRQPAYLALNPQGRVPALQVDEGELLIQSPAIIEYLEERYPQPALLSSDPLRRARERGVAALVGCDIHPLHNASVLNLLRQWGHDEEQVRQWIGHWVGQGLAAVEQLIGDQGWCFGDRPGLADVYLVPQLYAAERFGVALDAWPRIRRVADLAAAHPAFRQAHPANQPDTPAA
[3]
  binding: no binding (only in the ΔrhlR strain)
[2]
  binding: binds

B6: AckA (protein, UniProt B7UYA0 1-394)
chain: MPSRNILVINCGSSSIKFALVNEAHSLFPLHGLAERLGSRDAVLRWKRGGDSDSLMIPNADHRAALAQLLPMVQNAAGGKLHGIGHRVVHGGELFTHATRIDDRVVEAIRATAPLAPLHNPANLQGIEAAMTLFPKLPHVAVFDTAFHQSLPEHAYRYALPEALYREHGVRRYGFHGTSHRYVSHRAAEMAGLAVGDSSWLSAHLGNGSSTCAIVNGQSLDTSMGLTPLEGLVMGTRSGDVDPNLHSHLARTLGWSLERIDSMLNNESGLLGLSDLSNDMRTLEQEREQGHPGAALAIEVFCYRLAKSLAAMSCALPQLDGVIFTGGIGENSPLVRAKTAAHLRLFDLRLDQEANARCVRGVAGPIQAAGHPRVLVIPTNEERQIALDTLALLD
[3]
  binding: binds

B7: GroS (protein, UniProt Q02H54 1-97)
chain: MKLRPLHDRVVIRRSEEETKTAGGIVLPGSAAEKPNRGEVVAVGTGRVLDNGEVRALAVKVGDKVVFGPYSGSNAIKVDGEELLVMGESEILAVLED
[3]
  binding: binds

B8: NadB (protein, UniProt Q51363 1-538)
chain: MSQHYQHDVLVIGSGAAGLSLALTLPEHLRIAVLSKGELSQGSTYWAQGGVAAVLDDTDTVESHVEDTLVAGGGLCREDAVRFTVEHSREAIQWLIEQGVPFTRDEQHNHEEGSFEYHLTREGGHSHRRIIHAADATGAAIFNTLLAQARRRPNIELLSQRVAVDLITERKLGLPSKRCLGAYVLNRESGEVDTFRARFSVLASGGASKVYLYTSNPDGNSGDGIAMAWRAGCRVGNLEFNQFHPTCLYHPQAKSFLITEALRGEGALLRLPNGERFMPRFDPRGELAPRDIVARAIDHEMKRLGIDCVYLDISHKPAEFIKAHFPTVYERCLDFGIDITQQPIPVVPAAHYTCGGVLVDQHGHTDVPGLYAIGETTFTGLHGANRMASNSLLECFVYARSAAADMLQRLPGTPVPESLPSWDASQVTDSDEDVIIAHNWDELRRFMWDYVGIVRTNKRLQRAQHRVRLLLSEIDEFYSNYKVSRDLIELRNLALVAELIIRSAMQRRESRGLHYTLDYPDLLPEARDTILVPPIYGD
[3]
  binding: binds

B9: PA14_03450 (protein, UniProt Q9I6M4 1-426)
chain: MSKTNESLLKRRQAAVPRGVGQIHPVVAERAENSTVWDVEGREYIDFAGGIAVLNTGHLHPKVIAAVQEQLGKLSHTCFQVLAYEPYIELAEEIAKRVPGDFPKKTLLVTSGSEAVENAVKIARAATGRAGVIAFTGAYHGRTMMTLGLTGKVVPYSAGMGLMPGGIFRALAPCELHGVSEDDSIASIERIFKNDAQPQDIAAIIIEPVQGEGGFYVNSKSFMQRLRALCDQHGILLIADEVQTGAGRTGTFFATEQLGIVPDLTTFAKSVGGGFPISGVAGKAEIMDAIAPGGLGGTYAGSPIACAAALAVLKVFEEEKLLERSQAVGERLKAGLREIQAKHKVIGDVRGLGSMVAIELFEGGDTHKPAAELVSKIVVRAREKGLILLSCGTYYNVIRFLMPVTIPDAQLEKGLAILAECFDELA
[3]
  binding: binds

B10: YbeY (enzyme, UniProt Q02SF0 1-160)
chain: MPLELDLQVASAAPDLPSEAQFRAWCELALRQRPESELTIRLVDEAEGLELNSTYRHKDYATNVLSFPADVPDELLDIPLLGDLVICAPVVAREALEQRKPLQAHWAHLVIHGCLHLLGYDHIDDAEAEEMETLERELLAELGHPDPYACDDEEPPSKEK
[3]
  binding: no binding (only in the ΔrhlR strain)
[2]
  binding: binds
